We go through 20 compounds from patent US5436251A, “Treatment of anxiety and gastrointestinal disorders with azabicyclo carbonyl-2-(cyclopropylmethyloxy)benzamide” (John Wyeth & Brother, Limited, priority 1992, dated 1995).

Protein sequences, listed by entry. Tags and fused reporters are not part of them. Residues count along the entry.
UniProt P35563, 24-483 limits assumed: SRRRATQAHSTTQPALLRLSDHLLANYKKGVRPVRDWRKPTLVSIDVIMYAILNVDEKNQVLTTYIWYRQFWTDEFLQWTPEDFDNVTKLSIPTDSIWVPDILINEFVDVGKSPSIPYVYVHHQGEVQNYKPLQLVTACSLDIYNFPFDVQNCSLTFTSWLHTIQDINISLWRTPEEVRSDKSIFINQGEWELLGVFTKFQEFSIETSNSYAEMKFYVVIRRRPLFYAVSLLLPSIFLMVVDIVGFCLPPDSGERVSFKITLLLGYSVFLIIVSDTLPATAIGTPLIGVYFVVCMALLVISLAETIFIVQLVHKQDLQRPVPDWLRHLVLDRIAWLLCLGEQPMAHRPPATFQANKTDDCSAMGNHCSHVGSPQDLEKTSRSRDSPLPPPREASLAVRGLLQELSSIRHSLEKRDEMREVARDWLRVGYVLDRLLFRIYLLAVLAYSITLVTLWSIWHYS

One experiment deals with 5-HT3 receptors (Rattus norvegicus, UniProt P35563). Kind of experiment: 5-HT3 antagonistic activity in the rat vagus (antagonism of 5-HT depolarization of isolated vagus nerve, Schild analysis). To be noted: rat vagus nerve in vitro. Also noted: species or system rat (Sprague-Dawley). As to the method:
Compound A, the compound of GB 2236528A and the compounds disclosed in GB 2213816A are tested for 5-HT3 antagonistic activity in the rat vagus by the following procedure:
The method is similar to that described by Ireland and Tyers, Br. J. Pharmac., 1987, 90, 229-238 and is dependent upon the ability of 5-HT to depolarize the vagus nerve in vitro.
Segments of the vagus nerve from Sprague-Dawley rats were placed in a perspex chamber and perfused with Krebs solution. Electrodes, positioned at either end of the nerve segment, were used to record the potential differences which ensued upon the addition of various concentrations of 5-HT to one end of the nerve segment.
Concentration-response curves to 5-HT were obtained in this manner prior to and following equilibration of the nerve segment with Krebs solution containing the test-substance.

Experiment [1] can be described thus: Potential anxiolytic activity: mouse exploratory activity in a two-compartment light/dark box. To be noted: s.c., significant (p<0.05) increase in rearing activity in the light section. The protocol:
Compound A, the compound of GB 2236528A and a representative number of compounds disclosed in GB 2213816A which had high pA2 values in the 5-HT3 -antagonist test procedure given above were tested for potential anxiolytic activity by a test procedure measuring mouse exploratory activity in a two-compartment light/dark box based upon the procedure of B Costall et al, Neuropharmacology, 1987, 26, 195-200 and J. N. Crawley et al, Pharmac. Biochemo Behav., 1980, 13, 167-170. The test involves observing groups of mice placed in an open topped box, one third of which is painted black and illuminated under a dim red light and partitioned from the remainder of the box which is painted white and brightly illuminated. Access between the two sections is via an opening in the centre of the partition. The groups of mice are treated with vehicle or test compound and various behavioural parameters of the animals are measured including the number of exploratory rearings made by the mice in each section and the number of times the mice cross lines marked on the floor of each section. For each treatment group the mean numbers of line crossings and rears in each section of the box are calculated. Differences between drug-treated groups and vehicle-treated controls are compared using Student's unpaired t-test. […] Test compounds are considered to be active if they induce a similar set of changes and, in particular, if they produce a significant (p<0.05) increase in rearing activity in the light section of the box.

Structures were worked out from names or drawings and are uncertain.

For orientation: pA2 means the negative logarithm of the molar antagonist concentration that doubles the agonist concentration needed for the same response. A lower pA2 goes with lower antagonist potency.

In the case of `CN1[C@@H]2CC[C@H]1C[C@@H](OC(=O)Nc1cc(Cl)cc(Cl)c1)C2`, the pA2 on 5-HT3 receptors (tested form: HCl) was determined as 7.6.

At 5-HT3 receptors (tested form: fumarate), `CC(C)Oc1ccccc1C(=O)NC(=O)NC1CN2CCC1CC2` (stereo not drawn) had a pA2 of 8.7. In addition, the “minimum effective dose (MED)” value in experiment [1] (tested form: fumarate) worked out at 1 mg/kg.

On to `COc1ccccc1C(=O)NC(=O)N[C@H]1CN2CCC1CC2`, for which the pA2 on 5-HT3 receptors (tested form: fumarate) came to 8.15.

Consider `CCOc1ccccc1C(=O)NC(=O)NC1CN2CCC1CC2` (stereo not drawn), for which, on 5-HT3 receptors (tested form: fumarate), the pA2 turned out to be 8.35. The “minimum effective dose (MED)” value in experiment [1] (tested form: fumarate) was determined as 1 mg/kg.

On to `Cc1cccc(C)c1C(=O)NC(=O)NC1CN2CCC1CC2` (stereo not drawn), for which the pA2 on 5-HT3 receptors (tested form: quarter hydrate) is given as less than 6.5.

Consider `O=C(Nc1cc(Cl)cc(Cl)c1)N[C@@H]1CN2CCC1CC2`, for which, on 5-HT3 receptors, the pA2 is reported as 8.5.

`O=C(Nc1cc(Cl)cc(Cl)c1)N[C@H]1CN2CCC1CC2` came in with a pA2 at 5-HT3 receptors (tested form: quarter hydrate) of 7.4. Moreover, in experiment [1] (tested form: quarter hydrate), the “minimum effective dose (MED)” value is on record as 1 mg/kg.

`O=C(NC(=O)c1cccs1)NC1CN2CCC1CC2` (stereo not drawn): at 5-HT3 receptors (tested form: HCl hemihydrate), the pA2 is 6.9.

Take `COc1ccc(C(=O)NC(=O)NC2CN3CCC2CC3)cc1` (stereo not drawn): the pA2 at 5-HT3 receptors (tested form: maleate hemihydrate) is listed as less than 6.5.

Take `Cc1ccccc1C(=O)NC(=O)NC1CN2CCC1CC2` (stereo not drawn): at 5-HT3 receptors (tested form: fumarate), the pA2 was determined as 6.6.

On 5-HT3 receptors (tested form: fumarate), `O=C(NC(=O)c1ccccn1)NC1CN2CCC1CC2` (stereo not drawn) returned a pA2 of less than 6.5.

As to `COc1ccccc1C(=O)NC(=O)N[C@@H]1CN2CCC1CC2`, the pA2 at 5-HT3 receptors (tested form: fumarate) was determined as 7.25.

`O=C(NC(=O)c1ccc2ccccc2c1)NC1CN2CCC1CC2` (stereo not drawn) yielded a pA2 at 5-HT3 receptors (tested form: HCl hemihydrate) of less than 6.5.

At 5-HT3 receptors (tested form: oxalate), `O=C(NC(=O)c1cccc(C(F)(F)F)c1)NC1CN2CCC1CC2` (stereo not drawn) gave a pA2 of less than 6.5.

The compound `CN1[C@@H]2CC[C@H]1C[C@@H](NC(=O)Nc1cc(Cl)cc(Cl)c1)C2` displayed a pA2 at 5-HT3 receptors (tested form: maleate) of 7.9.

`COc1ccccc1C(=O)NC(=O)NC1CC2CCC(C1)N2C` (stereo not drawn): the pA2 at 5-HT3 receptors (tested form: HCl) amounted to 8.6. Besides, in experiment [1] (tested form: HCl), the “minimum effective dose (MED)” value is 1 mg/kg.

At 5-HT3 receptors (tested form: fumarate), `C=CCOc1ccccc1C(=O)NC(=O)NC1CN2CCC1CC2` (stereo not drawn) came in with a pA2 of 7.8.

On 5-HT3 receptors (tested form: succinate), `O=C(NC(=O)c1ccco1)NC1CN2CCC1CC2` (stereo not drawn) had a pA2 of less than 6.5.

At 5-HT3 receptors (tested form: oxalate hemihydrate), `O=C(NC(=O)c1ccccc1OCC1CC1)NC1CN2CCC1CC2` (stereo not drawn) showed a pA2 of 8.1.

Regarding `O=C(NC(=O)c1ccccc1F)NC1CN2CCC1CC2` (stereo not drawn), the pA2 on 5-HT3 receptors (tested form: succinate) is given as less than 6.5.
